Measured values published in US20250333441A1, “POLYPEPTIDE INHIBITORS AND USES THEREOF” (Neuracle Science Co., Ltd., priority 2021, published 2025).
Results are given in words; binding and its absence hold for the method and conditions named. Binding seen in cells or lysates may run through a third protein. Some results given as binding are weak or reduced against the parent protein; the word gives no strength. Sequences can lack the tags named with a protein.

By UniProt entry, the sequences of proteins in these tests, tags left out. Where a name states a change or a piece, a line headed by the entry shows the natural chain unless it says otherwise.
UniProt Q7Z5A7: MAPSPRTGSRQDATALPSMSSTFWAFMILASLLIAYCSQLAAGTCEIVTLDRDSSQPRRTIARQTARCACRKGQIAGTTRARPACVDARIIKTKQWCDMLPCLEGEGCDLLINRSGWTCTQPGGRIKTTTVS

Tests used:
[1] = target: Human FAM19A5 Protein (Isoform 1) (human) (UniProt Q7Z5A7); assay: co-immunoprecipitation and immunofluorescence colocalisation, co-transfected HEK293 cells
[2] = target: Human FAM19A5 Protein (Isoform 1) (human) (UniProt Q7Z5A7); assay: immunofluorescence and co-immunoprecipitation, co-transfected HEK293 cells

binding [1]: binds
binding [2]: binds
B1: FLAG-tagged LRRC4B protein (receptor, not shown: small tags and cut ends)
chain: AGGGGVAVTSAAGGGSPPATSCPVACSCSNQASRVICTRRDLAEVPASIPVNTRYLNLQENGIQVIRTDTFKHLRHLEILQLSKNLVRKIEVGAFNGLPSLNTLELFDNRLTTVPTQAFEYLSKLRELWLRNNPIESIPSYAFNRVPSLRRLDLGELKRLEYISEAAFEGLVNLRYLNLGMCNLKDIPNLTALVRLEELELSGNRLDLIRPGSFQGLTSLRKLWLMHAQVATIERNAFDDLKSLEELNLSHNNLMSLPHDLFTPLHRLERVHLNHNPWHCNCDVLWLSWWLKETVPSNTTCCARCHAPAGLKGRYIGELDQSHFTCYAPVIVEPPTDLNVTEGMAAELKCRTGTSMTSVNWLTPNGTLMTHGSYRVRISVLHDGTLNFTNVTVQDTGQYTCMVTNSAGNTTASATLNVSAVDPVAAGGTGSGGGGPGGSGGVGGGSGGYTYFTTVTVETLETQPGEEALQPRGTEKEPPGPTTDGVWGGGRPGDAAGPASSSTTAPAPRSSRPTEKAFTVPITDVTENALKDLDDVMKTTKIIIGCFVAITFMAAVMLVAFYKLRKQHQLHKHHGPTRTVEIINVEDELPAASAVSVAAAAAVASGGGVGGDSHLALPALERDHLNHHHYVAAAFKAHYSSNPSGGGCGGKGPPGLNSIHEPLLFKSGSKENVQETQI
